Our source for the binding signal values is paper PMC7819943, “Rice protein-binding microarrays: a tool to detect cis-acting elements near promoter regions in rice”.

The list shows a part of the results.

The experiment deals with T1, OsSMF1 (Oryza sativa, UniProt Q6ZLB0 1-436).
T1 sequence: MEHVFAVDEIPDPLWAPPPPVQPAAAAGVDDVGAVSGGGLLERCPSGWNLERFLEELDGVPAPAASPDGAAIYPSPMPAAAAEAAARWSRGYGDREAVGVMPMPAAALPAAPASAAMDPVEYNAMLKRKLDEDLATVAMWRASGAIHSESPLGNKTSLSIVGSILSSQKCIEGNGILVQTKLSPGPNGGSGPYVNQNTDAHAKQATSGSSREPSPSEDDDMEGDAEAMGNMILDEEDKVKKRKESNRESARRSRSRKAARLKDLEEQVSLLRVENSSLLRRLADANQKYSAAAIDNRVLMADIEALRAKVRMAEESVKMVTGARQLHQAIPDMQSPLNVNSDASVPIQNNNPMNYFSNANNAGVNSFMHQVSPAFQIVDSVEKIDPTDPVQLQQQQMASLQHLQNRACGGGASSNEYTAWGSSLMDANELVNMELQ
The experiment can be described thus: protein-binding microarray (RPBM); PBS, 2% BSA, 51.3 ng/ul salmon testes DNA, 50 uM zinc acetate, 200 nM TF, 25 C, 1 h; high values mean tight binding. To be noted: protein: recombinant; tags: N-terminal polyhistidine and DsRed monomer fusion (pET32a); chain copies: 2; label: CyDye5-dUTP incorporated in the synthesized complementary strand; 3' TTTTT single-stranded linker to array surface; dsDNA, one strand shown. The essentials: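 Using Ni–NTA, transcription factors fused N-terminally to polyhistidine and DsRed were purified after expression in E. coli BL21-CodonPlus. These were incubated at 200 nM with a blocked, double-stranded custom Agilent array for 1 h at 25 °C in a buffer containing 50 µM zinc acetate, and the array was washed. The binding signal is per-feature fluorescence intensity (arbitrary units) on an Axon 4000B scanner.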
As for “TTGATCTCTTGTCTTCTATGGACCAAAAGTGACGTGGTGACGGAGTCACCTAGTGCAG”, the binding signal was 11700 fluorescence intensity (a.u.). The figure for “GGCGCTGTCGGACCCCTCCGGCGCGCTGGCGACGTGGACGCGGAGTCACCTAGTGCAG” is 4610 fluorescence intensity (a.u.). The figure for “TGTTCATCTGCGCCACGACACGACACGACACGACACGAGACGGAGTCACCTAGTGCAG” is 4370 fluorescence intensity (a.u.); for “CTAGGTAAGCAATGACGAGGACACAGCAGCATAGGAAGCTCGGAGTCACCTAGTGCAG” it is 3960 fluorescence intensity (a.u.). As for “CTGCTTCATGGATTGATCCATGCTGTCGTAGTGGCTCTCGCGGAGTCACCTAGTGCAG”, the figure is 26600 fluorescence intensity (a.u.); as for “ATAGTACAAATGCATGTGTCCATAACGCGTGTATACTCACCGGAGTCACCTAGTGCAG”, 3630 fluorescence intensity (a.u.); as for “CAACTCCGGCGTGGCGGCGTACGTGGCGGCGTCGACGGTGCGGAGTCACCTAGTGCAG”, 10800 fluorescence intensity (a.u.). “TTTAGAATTCCCGGATCAAAACCTTATCGTCTTATATATCCGGAGTCACCTAGTGCAG”: the binding signal is 3660 fluorescence intensity (a.u.).

Regarding “CATTATATCGAAGTTGTACTGCATGAAACCTTAAGCAATGCGGAGTCACCTAGTGCAG”, the binding signal is 3180 fluorescence intensity (a.u.). Consider “TGGCAAATCTCATCAGCAACAGGGACCTCTTGGTGTGACTCGGAGTCACCTAGTGCAG”, for which the binding signal is 4290 fluorescence intensity (a.u.).

Take “AACCCATGCCCACGTGTACTACGTAATTATCCTCTATTGTCGGAGTCACCTAGTGCAG”: the binding signal was 15600 fluorescence intensity (a.u.). The figure for “TACCCACGCTGACTGCCTCGGCGTCCTTCCCTCTCGACATCGGAGTCACCTAGTGCAG” is 3640 fluorescence intensity (a.u.). As for “TCACCACGGGACCCTCTATCCCTCGGCACCATCCGCCGATCGGAGTCACCTAGTGCAG”, the figure is 22400 fluorescence intensity (a.u.); as for “ACCACTTGGCAAACTCCCCAAGCGGCCACGCTCGTCACGACGGAGTCACCTAGTGCAG”, 3800 fluorescence intensity (a.u.); as for “TGCCACCCGTCCGACGTGGCGTCCCCATCCCACTTACTTGCGGAGTCACCTAGTGCAG”, 19700 fluorescence intensity (a.u.). As for “TGCGGGGACACGTCCGCCACCAGGATGGGCTGTGTTGGGCCGGAGTCACCTAGTGCAG”, the figure is 6130 fluorescence intensity (a.u.); as for “TACATTTGCAGGTATATATAAGTGTGATGTGTGAGCTCGTCGGAGTCACCTAGTGCAG”, 3920 fluorescence intensity (a.u.). Consider “CTGCTTTACTCTACGACAATTTACGGTGGATTTTGGGTCTCGGAGTCACCTAGTGCAG”, for which the binding signal was 3260 fluorescence intensity (a.u.). As for “GCATCCTCATCCGCCTCAAGGAAGGTTCATGGATAACGTCCGGAGTCACCTAGTGCAG”, the figure is 31200 fluorescence intensity (a.u.); as for “CTAGTTTTGACTCACCGACCATTGCCCTTCTCCCTCTCCGCGGAGTCACCTAGTGCAG”, 5570 fluorescence intensity (a.u.). On to “GTAGAGGGGTAGAAATGCACGGCCAACTCAGAACATCCGTCGGAGTCACCTAGTGCAG”, for which the binding signal is 3630 fluorescence intensity (a.u.). The figure for “ACATCCTGATGACTAGTGCATAGCAACGCAAAATCTAATACGGAGTCACCTAGTGCAG” is 12300 fluorescence intensity (a.u.); for “AAAGAGAAGTTAAATATGACGAGAAAAGTTGTCACGGTAGCGGAGTCACCTAGTGCAG” it is 17000 fluorescence intensity (a.u.); for “GTCGAGTTTGAAATTCATCCCTAAATTGAAATACTATATACGGAGTCACCTAGTGCAG” it is 6610 fluorescence intensity (a.u.). As for “CGCTGGCACGCACGGTGGCACGCCACGTTGGCAAAAGTGGCGGAGTCACCTAGTGCAG”, the binding signal is 7980 fluorescence intensity (a.u.).

“TGTGCCCTCTCCCCTTTCAGCTTCCTCCATCGCGCCTCTCCGGAGTCACCTAGTGCAG”: the binding signal is 3450 fluorescence intensity (a.u.). As for “AATCTTATATATATGAACATTATATAGTACTATGAATCTGCGGAGTCACCTAGTGCAG”, the figure is 5570 fluorescence intensity (a.u.); as for “CAGCTCAGCCGGGAGAGTCAGATCACCACATCAGTGCGTGCGGAGTCACCTAGTGCAG”, 25300 fluorescence intensity (a.u.); as for “CGGTGGTGACGTTGGAGAAGGAGGCGGCTCGCAGACCGGGCGGAGTCACCTAGTGCAG”, 3450 fluorescence intensity (a.u.). With “GCGTTCATGTCCACTGATGACTCAGCGATTTCTGAATCACCGGAGTCACCTAGTGCAG”, the binding signal is 16700 fluorescence intensity (a.u.). The figure for “ATCCGCTCGCGGCGGCCGGCCCCACGACGCCGACGCGCCACGGAGTCACCTAGTGCAG” is 4060 fluorescence intensity (a.u.); for “CGTTGATATAAAGACCAGTGTCATACCACGCCAAGATTCTCGGAGTCACCTAGTGCAG” it is 4610 fluorescence intensity (a.u.).

On to “GCCGGCCTCCACGTTCGGGAGGAACGACAAGATGTGGCCCCGGAGTCACCTAGTGCAG”, for which the binding signal was 3800 fluorescence intensity (a.u.). As for “TTATATTATGGCAATGATGCCTCTTGTACAAAGGGAACCGCGGAGTCACCTAGTGCAG”, the figure is 19200 fluorescence intensity (a.u.); as for “CCATGTTGACCGCCACCTCACCTCCTCCCCTTCCCTTCCCCGGAGTCACCTAGTGCAG”, 12900 fluorescence intensity (a.u.). As for “TTTCCTGTTCGGTGTTGATGACAGCTCACTGTACATGATCCGGAGTCACCTAGTGCAG”, the figure is 5560 fluorescence intensity (a.u.).

With “TCTCCGACTTGTCGACCGCCTCCGCGTGTGCCGACGGCTTCGGAGTCACCTAGTGCAG”, the binding signal was 21200 fluorescence intensity (a.u.). As for “CGAACTTTTGTCAATTAATGCCAATATTAGCACACGTGGTCGGAGTCACCTAGTGCAG”, the figure is 5000 fluorescence intensity (a.u.). For the sequence “CCCGACCTCAACGACGACCATAACAATAGTGTGCATGACGCGGAGTCACCTAGTGCAG”, the binding signal was 3620 fluorescence intensity (a.u.). “AAGGAAGTCGTTTTGGACAGCGACACAGTCTCTAAAACACCGGAGTCACCTAGTGCAG”: the binding signal is 58900 fluorescence intensity (a.u.).

Turning to “ACGACGACTCACTAGTCTTCACGCTCCACATCCTCCTCCACGGAGTCACCTAGTGCAG”, the binding signal is 3850 fluorescence intensity (a.u.). On to “GAGAAGAAGGCCACCTCACCACTAAAGGAGGAGGAGGAGGCGGAGTCACCTAGTGCAG”, for which the binding signal is 43500 fluorescence intensity (a.u.).
